The values below come from the supplement of paper PMC12024529.

Structures can show the parent of a compound that is named as a salt. The list shows a part of the results. Plates or batches differ in their baseline, so values are only roughly comparable.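 Wild-type or misfolding-prone missense mutant B-domain-deleted factor VIII, fused to Gaussia luciferase, is stably expressed in HEK293 lines. Each score is (mean triplicate-well luminescence minus DMSO mean) divided by DMSO standard deviation. Hits score at least 2; lower scores could stem from decreased secretion or poorer cell viability.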

This assay has as its system HEK293 p.N1941S BDD-FVIII-Gluc. Put plainly: secreted FVIII-Gluc luciferase Z-score vs DMSO control; higher = more FVIII-Gluc secretion. The note with it: 5 µM; 24 h.
As to `Nc1ncnc2c1ncn2[C@@H]1O[C@H](CO)[C@@H](O)[C@@H]1O` [Vidarabine (Vira-A)], the “secreted FVIII-Gluc luciferase Z-score” value was inactive: -0.359.
Next, `COc1cc(C(=O)NS(=O)(=O)c2ccccc2C)ccc1Cc1cn(C)c2ccc(NC(=O)OC3CCCC3)cc12` [Zafirlukast (Accolate)]: inactive: 0.813.
Next, `CCN(CC)CCOCCOC(=O)C(CC)(CC)c1ccccc1` [Oxeladin Citrate]: inactive: -0.598; `C[C@H](N[C@@H](CCc1ccccc1)C(=O)O)C(=O)N1CCC[C@H]1C(=O)O` [Enalaprilat dihydrate]: inactive: -1.69.
Next, `CO[C@H]1/C=C/O[C@@]2(C)Oc3c(C)c(O)c4c(O)c(c(/C=N/N5CCN(C6CCCC6)CC5)c(O)c4c3C2=O)NC(=O)/C(C)=C\C=C\[C@H](C)[C@H](O)[C@@H](C)[C@@H](O)[C@@H](C)[C@H](OC(C)=O)[C@@H]1C` [Rifapentine (Priftin)]: inactive: -1.45.
As for `[O-]n1ccccc1=S.[O-]n1ccccc1=S.[Zn+2]` [Pyrithione zinc], the “secreted FVIII-Gluc luciferase Z-score” value was inactive: -5.79.
Turning to `C=C1CC[C@H](O)C/C1=C/C=C1\CCC[C@]2(C)[C@@H]([C@H](C)/C=C/[C@H](C)C(C)C)CC[C@@H]12` [Vitamin D2], the “secreted FVIII-Gluc luciferase Z-score” value was inactive: -1.96.
Next, `CCC[S+]([O-])c1ccc2[nH]c(NC(=O)OC)nc2c1` (stereo not drawn) [Albendazole Oxide (Ricobendazole)]: inactive: -0.0122; `CC(C)[C@H](N)C(=O)OCC(CO)OCn1cnc2c(=O)nc(N)[nH]c21` (stereo partly drawn) [valganciclovir hydrochloride]: inactive: 0.0036.
Next, `CC(=O)/N=c1/sc(S(N)(=O)=O)nn1C` [Methazolamide]: inactive: 0.857.
Next, `COc1cc(C)c(/C=C/C(C)=C/C=C/C(C)=C/C(=O)O)c(C)c1C` [Acitretin]: inactive: 0.156.
`O=C1CN2Cc3c(ccc(Cl)c3Cl)N=C2N1` [Anagrelide HCl]: the “secreted FVIII-Gluc luciferase Z-score” value is inactive: -1.29.
Next, `CN(C)CCC[C@@]1(c2ccc(F)cc2)OCc2cc(C#N)ccc21` [Escitalopram oxalate]: inactive: -0.0953; `CC(=O)OCC(=O)[C@@]1(O)[C@H](C)C[C@H]2[C@@H]3CCC4=CC(=O)C=C[C@]4(C)[C@@]3(F)[C@@H](O)C[C@@]21C` [Dexamethasone acetate]: active: 3.86; `C[C@]12CC[C@@H]3c4ccc(O)cc4C[C@@H](CCCCCCCCC[S+]([O-])CCCC(F)(F)C(F)(F)F)[C@H]3[C@@H]1CC[C@@H]2O` (stereo partly drawn) [Fulvestrant (Faslodex)]: inactive: -2.
Next, `Cc1ccccc1C(=O)Nc1ccc(C(=O)N2CCCC(O)c3cc(Cl)ccc32)c(C)c1` (stereo not drawn): inactive: -1.05; `COc1ccc2cccc(CCNC(C)=O)c2c1` [Agomelatine]: inactive: 1.56.
With `CN(C)CCCN1c2ccccc2Sc2ccc(C(F)(F)F)cc21` [Triflupromazine HCl], the “secreted FVIII-Gluc luciferase Z-score” value is inactive: -0.0724.
Next, `Fc1ccc(C(c2ccc(F)cc2)N2CCN(C/C=C/c3ccccc3)CC2)cc1` [Flunarizine 2HCl]: inactive: -2.56.
Next, `CC(C)NCC(O)c1cc(O)cc(O)c1` (stereo not drawn) [Metaproterenol Sulfate]: inactive: 0.459; `COC(=O)Nc1nc2cc([S+]([O-])c3ccccc3)ccc2[nH]1` (stereo not drawn) [Oxfendazole]: inactive: -2.62.
Next, `COC(=O)C1=CO[C@@H](O[C@@H]2O[C@H](CO)[C@@H](O)[C@H](O)[C@H]2O)[C@@H]2C(CO)=CC[C@H]12` [Geniposide]: inactive: -2.39; `O=C(O)c1ccccc1` [Benzoic acid]: inactive: 0.666; `COc1ccc2c(c1)c(CC(=O)OCC(=O)O)c(C)n2C(=O)c1ccc(Cl)cc1` [Acemetacin (Emflex)]: inactive: -1.85.
As for `CN(C)CCc1c[nH]c2ccc(C[C@H]3COC(=O)N3)cc12` [Zolmitriptan (Zomig)], the “secreted FVIII-Gluc luciferase Z-score” value was inactive: 0.153.
In the case of `CN(C)CCOC(C)(c1ccccc1)c1ccccn1` (stereo not drawn) [Doxylamine Succinate], the “secreted FVIII-Gluc luciferase Z-score” value was inactive: -0.201.
Next, `CCCOc1ccc(C(=O)OCCN(CC)CC)cc1N` [Proparacaine HCl]: inactive: 0.289; `C=C[C@]1(C)C[C@@H](OC(=O)CS[C@@H]2C[C@H]3CC[C@@H](C2)N3C)[C@]2(C)[C@H](C)CC[C@]3(CCC(=O)[C@H]32)[C@@H](C)[C@@H]1O` [Retapamulin]: inactive: -1.65.
Consider `CCN(CC)CC#CCOC(=O)C(O)(c1ccccc1)C1CCCCC1` (stereo not drawn) [Oxybutynin chloride], for which the “secreted FVIII-Gluc luciferase Z-score” value was inactive: -0.24.
Next, `NS(=O)(=O)c1cc2c(cc1Cl)NCNS2(=O)=O` [Hydrochlorothiazide]: inactive: 1.37; `Cn1c(=O)c2c(ncn2CC2OCCO2)n(C)c1=O` [Doxofylline]: inactive: -1.09.
With `CCCNCC(O)COc1ccccc1C(=O)CCc1ccccc1` (stereo not drawn) [Propafenone (Rytmonorm)], the “secreted FVIII-Gluc luciferase Z-score” value was inactive: 0.545.
Next, `CN(C)/N=N/c1[nH]cnc1C(N)=O` [Dacarbazine (DTIC-Dome)]: inactive: -2.5; `CN(C)CCc1c[nH]c2ccc(Cn3cncn3)cc12` [Rizatriptan Benzoate]: inactive: 0.291; `CC1=C(C(=O)OC(C)C)C(c2cccc([N+](=O)[O-])c2)C(C(=O)OC2CN(C(c3ccccc3)c3ccccc3)C2)=C(N)N1` (stereo not drawn) [Azelnidipine]: inactive: -0.0634.
Next, `Nc1nc(CC(=O)Nc2ccc(CCNC[C@H](O)c3ccccc3)cc2)cs1` [Mirabegron (YM178)]: inactive: 0.72.
Take `Clc1ccc2nsnc2c1NC1=NCCN1` [Tizanidine HCl]: the “secreted FVIII-Gluc luciferase Z-score” value is inactive: -1.24.
Next, `CCOC(=O)O[C@]1(C(=O)OCCl)CC[C@H]2[C@@H]3CCC4=CC(=O)C=C[C@]4(C)[C@H]3[C@@H](O)C[C@@]21C` [Loteprednol etabonate]: inactive: -1.17.
